Measured values published in patent US10858423B2 (PIERRE FABRE MEDICAMENT, priority 2015, dated 2020).

Test: general procedure: solution-phase peptide synthesis; DEPC/DIEA; HATU/DIEA
Conditions: for conjugation yield: conjugation step

Substance | conjugation yield [%] | step yield (coupling step) [%] | other results
methyl ((2R,3R)-3-((S)-1-((3R,4S,5S)-4-((S)-2-((S)-2-((3-((((4-((S)-2-((S)-2-(6-(2,5-dioxo-2,5-dihydro-1H-pyrrol-1-yl)hexanamido)-3-methylbutanamido)-5-ureidopentanamido)benzyl)oxy)carbonyl)amino)benzyl)(methyl)amino)-3-methylbutanamido)-N,3-dimethylbutanamido)-3-methoxy-5-methylheptanoyl)pyrrolidin-2-yl)-3-methoxy-2-methylpropanoyl)-L-phenylalaninate 2,2,2-trifluoroacetate | 48 |  | 
methyl ((2R,3R)-3-((S)-1-((3R,4S,5S)-4-((S)-2-((S)-2-((4-(6-(2,5-dioxo-2,5-dihydro-1H-pyrrol-1-yl)-N-methylhexanamido)phenethyl)(methyl)amino)-3-methylbutanamido)-N,3-dimethylbutanamido)-3-methoxy-5-methylheptanoyl)pyrrolidin-2-yl)-3-methoxy-2-methylpropanoyl)-L-phenylalaninate 2,2,2-trifluoroacetate | 16 |  | 
methyl ((2R,3R)-3-((S)-1-((3R,4S,5S)-4-((S)-2-((S)-2-((4-((((4-((S)-2-((S)-2-(6-(2,5-dioxo-2,5-dihydro-1H-pyrrol-1-yl)hexanamido)-3-methylbutanamido)-5-ureidopentanamido)benzyl)oxy)carbonyl)(methyl)amino)phenethyl)(methyl) amino)-3-methylbutanamido)-N,3-dimethylbutanamido)-3-methoxy-5-methylheptanoyl)pyrrolidin-2-yl)-3-methoxy-2-methylpropanoyl)-L-phenylalaninate 2,2,2-trifluoroacetate | 70 |  | 
methyl ((2R,3R)-3-((S)-1-((3R,4S,5S)-4-((S)-2-((S)-2-((4-((S)-2-((S)-2-(6-(2,5-dioxo-2,5-dihydro-1H-pyrrol-1-yl)hexanamido)-3-methylbutanamido)-5-ureidopentanamido)phenethyl)(methyl)amino)-3-methylbutanamido)-N,3-dimethylbutanamido)-3-methoxy-5-methylheptanoyl)pyrrolidin-2-yl)-3-methoxy-2-methylpropanoyl)-L-phenylalaninate 2,2,2-trifluoroacetate | 13 |  | 
methyl (S)-2-((2R,3R)-3-((S)-1-((3R,4S,5S)-4-((S)-2-((((9H-fluoren-9-yl)methoxy)carbonyl)amino)-N,3-dimethylbutanamido)-3-methoxy-5-methylheptanoyl)pyrrolidin-2-yl)-3-methoxy-2-methylpropanamido)-3-phenylpropanoate |  | 34 | 
methyl (S)-2-((2R,3R)-3-((S)-1-((3R,4S,5S)-4-((S)-2-((S)-2-((3-aminobenzyl) (methyl)amino)-3-methylbutanamido)-N,3-dimethylbutanamido)-3-methoxy-5-methylheptanoyl)pyrrolidin-2-yl)-3-methoxy-2-methylpropanamido)-3-phenylpropanoate |  |  | step yield (late stage modification step): 19%; final HPLC purity (late stage modification step, 210 nm): 91.1%
methyl (S)-2-((2R,3R)-3-((S)-1-((3R,4S,5S)-4-((S)-2-((S)-2-((3-aminopropyl)(methyl)amino)-3-methylbutanamido)-N,3-dimethylbutanamido)-3-methoxy-5-methylheptanoyl)pyrrolidin-2-yl)-3-methoxy-2-methylpropanamido)-3-phenylpropanoate |  | 26 | final HPLC purity (coupling step, 210 nm): 91.5%
methyl (S)-2-((2R,3R)-3-((S)-1-((3R,4S,5S)-4-((S)-2-amino-N,3-dimethylbutanamido)-3-methoxy-5-methylheptanoyl)pyrrolidin-2-yl)-3-methoxy-2-methylpropanamido)-3-phenylpropanoate |  |  | step yield (late stage modification step): 81%
methyl (S)-2-((2R,3R)-3-((S)-1-((3R,4S,5S)-4-((S)—N,3-dimethyl-2-((S)-3-methyl-2-(methyl(4-(methylamino)phenethyl)amino)butanamido)butanamido)-3-methoxy-5-methylheptanoyl)pyrrolidin-2-yl)-3-methoxy-2-methylpropanamido)-3-phenylpropanoate |  | 7 | final HPLC purity (coupling step, 254 nm): 90.6%
